Laboratory results from PubChem BioAssay AID1347426 (Functional Genomics Laboratory (NCATS/FGL), 2020).
The whole screen tested about 31,000 sequences, of which about 1,400 (4.5%) were called active.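 How the source made its calls: active means median seed-adjusted z-score above 1 or below -1; inactive means the rest.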 Some of the results follow.

Test: Novel Modifiers of Survival Motor Neuron (SMN) Protein: Gene Identification via Genome-wide siRNA Screen;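 further: luminescence tracks full-length SMN protein made from the SMN2 reporter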
Details: HEK293T SMN2-luciferase reporter, siRNA knockdown, 72 h; actives lie on both sides
How it was run: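 Each of three siRNAs per gene is reverse-transfected (1 pmol) into reporter HEK293T cells whose luciferase output tracks SMN protein level. After 72 h culture, ONE-Glo luminescence is control-normalized, log10-transformed and MAD-standardized; Common Seed Analysis deprioritizes seed-driven hits.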
With GGCCUCUUCGAUGUCCUCATT against HTR6 the median seed-adjusted z-score was inactive: -0.463. For GCACAGAGCUGUCAGUGGUTT against EIF6, the median seed-adjusted z-score was inactive: 0. With GAAAGACUGAUGAGAUUAUTT against TXNDC6 the median seed-adjusted z-score was inactive: 0.156. In the case of CGCGGGAAAGUUGAACUAATT against BCL2L12, the median seed-adjusted z-score is reported as inactive: -0.77. In the case of CCACCAUUGAAGAUGCUUATT against RIT1, the median seed-adjusted z-score is reported as inactive: -0.157. In the case of CCUUGUUUCUACCAACAGUTT against HOXA6, the median seed-adjusted z-score is reported as inactive: -0.282. For GGACUAACCUUUGAGAAAUTT against KCNMB1, the median seed-adjusted z-score was inactive: -0.465. In the case of ACAAUGAAGUGAACCGCAATT against GFER, the median seed-adjusted z-score is reported as inactive: 0.402. With GCUCAGCACUUAUCGAACATT against ZNF135 the median seed-adjusted z-score was inactive: 0.038. In the case of CAUUGAUCUGUUAAAGAAATT against HIPK1, the median seed-adjusted z-score is reported as inactive: 0.69. In the case of ACGUAUUCCUUUCUUAUCATT against LIPC, the median seed-adjusted z-score is reported as inactive: 0.244. With CUUUCCGUGUGAAAUCAAATT against ZNF761 the median seed-adjusted z-score was inactive: 0.291. In the case of UCAUCUACACUGUCUUCAATT against DRD4, the median seed-adjusted z-score is reported as inactive: -0.183. In the case of CGAGGGUAUCAGAAACGUATT against UNC5C, the median seed-adjusted z-score is reported as inactive: 0.0496. With AGCUGAAGGUGGUUCGAGATT against TRIM9 the median seed-adjusted z-score was inactive: -0.437. For AGGCCAUUCGUGAAGCUUATT against FCAR, the median seed-adjusted z-score was inactive: -0.106. With GCUUGUUCCUUCAAUUAAATT against ZNF41 the median seed-adjusted z-score was inactive: 0.342. In the case of CAUUCAAAUUGCACUGCUATT against TRAPPC4, the median seed-adjusted z-score is reported as inactive: 0. In the case of GAACGGCAAUGUAUUCCAATT against SSR1, the median seed-adjusted z-score is reported as inactive: -0.434. For GAAUCAGACAGCGAAGUAATT against MPP5, the median seed-adjusted z-score was inactive: 0.429. With CCAACGACUGGAUUCCAGATT against SERPIND1 the median seed-adjusted z-score was inactive: 0.133. For CGAUAUAUUGGAUAAUCGATT against BIRC6, the median seed-adjusted z-score was inactive: 0.0785. In the case of CGUCGCGCCCUGUACAUAATT against GPR35, the median seed-adjusted z-score is reported as active: -1.46. With GCUCUAAUCUUACUAGGCATT against ZNF10 the median seed-adjusted z-score was inactive: 0. With ACACUUCGUUAUUCCUCUATT against TAAR5 the median seed-adjusted z-score was inactive: 0.573. In the case of GCUUAGGUCUUGCUCUCAATT against YWHAE, the median seed-adjusted z-score is reported as active: 1.38. With GCAUCCGCACUUCCACUAATT against SERINC3 the median seed-adjusted z-score was inactive: 0.29. In the case of CAUCCGGAAGGAGCCCUUUTT against ALDH3B1, the median seed-adjusted z-score is reported as inactive: 0.148. With GGAUACAUGAAGACACUUUTT against CD180 the median seed-adjusted z-score was inactive: 0. For CCGUGAAGCUGAUGCGUGATT against ATP1A3, the median seed-adjusted z-score was inactive: 0.329. In the case of CAAACCUCCCAGUAUCUAUTT against UBE2J2, the median seed-adjusted z-score is reported as inactive: -0.341. In the case of GCAAGCUGCUGAUCGAGUUTT against KAT5, the median seed-adjusted z-score is reported as inactive: 0.32. In the case of UGAGUUCUUUAGGACCGAATT against MFAP3L, the median seed-adjusted z-score is reported as active: 1.03. With GGUUCCCUGUACCAGCAAATT against GALNT4 the median seed-adjusted z-score was inactive: 0.419. For GGUUCUUUCUUGGUCCAAATT against SLC33A1, the median seed-adjusted z-score was inactive: 0.2. With GGAUAUGCUUCUAGGCCUATT against DDI1 the median seed-adjusted z-score was inactive: 0.259. For CCCAUUUCGGACUCCAAAATT against IRX3, the median seed-adjusted z-score was inactive: -0.285. With CCUAUGAUGAGGUCCAAGATT against CBLC the median seed-adjusted z-score was inactive: -0.726. With GAACUAGGAGAUACAAUAUTT against ELOVL6 the median seed-adjusted z-score was inactive: 0.742. With CGGUGGGAUGGGAACGAAATT against DRAP1 the median seed-adjusted z-score was active: 1.08. With CACCAAAUCUAAGGACCUATT against NEBL the median seed-adjusted z-score was inactive: 0.0769. In the case of GAGCACCCGUAUCAUUUAUTT against TPI1, the median seed-adjusted z-score is reported as inactive: 0.447. For GGCUUGGUAUCAUACACUATT against LRAT, the median seed-adjusted z-score was inactive: 0.345. For CAAAGGCAUCGAGUACUUATT against CAMKK2, the median seed-adjusted z-score was inactive: -0.121. With GCCUGUCUGUUGUUGGACATT against SLC7A6 the median seed-adjusted z-score was inactive: -0.0877. With GUUACAUUAUGAACGGUAUTT against NSF the median seed-adjusted z-score was inactive: -0.0728. In the case of GCUCAUUUGCGAACGGAUUTT against DUT, the median seed-adjusted z-score is reported as inactive: -0.0833. In the case of AGAUGAUCGGAGGCCUGUATT against HK3, the median seed-adjusted z-score is reported as inactive: 0.0759. For GCAAGAUGCUAUCCAUGCATT against ATN1, the median seed-adjusted z-score was inactive: -0.357. For CCAUGGGAAUGGUGGAUAUTT against SERPINB3, the median seed-adjusted z-score was inactive: -0.373. With GAGUGACUGUAGAGCCUCATT against GCS1 the median seed-adjusted z-score was inactive: 0.819. In the case of UGUUGAACAUGGAAUAAUATT against EFHA1, the median seed-adjusted z-score is reported as inactive: 0.0629. With AAUGUAUCCUGAUUACUUUTT against NDUFB9 the median seed-adjusted z-score was inactive: -0.982. With CGUUUUAGGUGGAAGACUATT against TRMT11 the median seed-adjusted z-score was inactive: -0.707. With GGGUGAAGUUCUACAUGCATT against AIFM3 the median seed-adjusted z-score was inactive: -0.727. With GGUGUUGAGUUUCUGCAAATT against CHMP1A the median seed-adjusted z-score was inactive: 0. With GAGAUAGACUUGCUGAGCATT against TRIP6 the median seed-adjusted z-score was active: 1.03. For ACCUGACCGUGUCGCUAUATT against DHRSX, the median seed-adjusted z-score was inactive: -0.686. In the case of AGCGGUCCCGAACCAGUUATT against HOXC5, the median seed-adjusted z-score is reported as inactive: 0.507. With CCAUAUAUCCGAAUGACCATT against RBM22 the median seed-adjusted z-score was inactive: 0.0259. In the case of AAACCCAUCUAUUCCUACATT against FOXN1, the median seed-adjusted z-score is reported as inactive: 0.226. In the case of GGAUGUGAAGAGUAGUAAATT against ARAP2, the median seed-adjusted z-score is reported as inactive: 0.388. In the case of AAAGAGAGGGUACAACUAATT against GPATCH4, the median seed-adjusted z-score is reported as inactive: -0.519. In the case of GGACAGUACCAUUCGCCUATT against ACOXL, the median seed-adjusted z-score is reported as inactive: 0.53. For ACUUGAAUCUUAGCAUUCATT against RAD9A, the median seed-adjusted z-score was inactive: -0.0564. In the case of GGACAGUAGUGUGCAACGATT against LRIT1, the median seed-adjusted z-score is reported as inactive: -0.611. With AGAACAAGCUUAUCACUGUTT against TUSC4 the median seed-adjusted z-score was inactive: 0.312. With CCUGUUUGAUAAAAGAAUATT against SFRS2 the median seed-adjusted z-score was inactive: 0.263. For CCUCUAACCUCAAAGCGAUTT against SYT3, the median seed-adjusted z-score was inactive: 0.221. For GGACUAUCUAAAACAAUAATT against ALCAM, the median seed-adjusted z-score was inactive: -0.743. In the case of GGAACAAGCUGUGAUCCCATT against OTUD7B, the median seed-adjusted z-score is reported as inactive: 0.226. In the case of GGAUCGUGGGAGCUAAGAATT against ZNF512, the median seed-adjusted z-score is reported as inactive: -0.675. With CCCAUGUCAUGGAUGCCUGTT against NSUN5C the median seed-adjusted z-score was inactive: -0.153. For CGUAUUAUAUGAAACGGAATT against GUCY1A3, the median seed-adjusted z-score was inactive: 0.187. In the case of GAAACGGGCUUAUAGCAAATT against EPHB1, the median seed-adjusted z-score is reported as inactive: -0.0232. In the case of GCCGAUUCUCAGUAAGUUATT against LCP2, the median seed-adjusted z-score is reported as inactive: -0.826. With AAAGCAAGCUGUUACAAAATT against ACAT2 the median seed-adjusted z-score was active: 1.25. For GUCCGAGCCCUGAAGAACATT against NACA, the median seed-adjusted z-score was inactive: 0.117. In the case of GACCAUUCGUACUCCUUGUTT against THAP11, the median seed-adjusted z-score is reported as active: -1.36. With GUAUGAGUGUGACCGGGAATT against MRC2 the median seed-adjusted z-score was active: -1.34. With GGAUUAUCAUGUAGUCCUATT against MEX3C the median seed-adjusted z-score was inactive: 0.0977. For GGUGAUGACUGCUUGAUGATT against PSKH1, the median seed-adjusted z-score was active: -2.03. For GGAUUCUCCACAAUCAAUATT against PCMT1, the median seed-adjusted z-score was inactive: 0.139. In the case of GGAAAGAACUACCUCCUGATT against TREH, the median seed-adjusted z-score is reported as inactive: 0.396. For GGAGAUCUGCUACUAAACATT against PSMD6, the median seed-adjusted z-score was active: -1.03. In the case of CUAUCUAUCUGGAAUCAGUTT against KDELR3, the median seed-adjusted z-score is reported as inactive: 0.476. With CCACGAGACUUGAACUUCATT against ANGPT2 the median seed-adjusted z-score was inactive: -0.163. For UCUGAAUACCAAAUACUAATT against FCGR1A, the median seed-adjusted z-score was inactive: 0.869. With CCAUCGAGUUCAUCGAUAATT against DUSP8 the median seed-adjusted z-score was inactive: -0.0326. In the case of GGAGUGCGAUGGACAAUUUTT against LCT, the median seed-adjusted z-score is reported as inactive: 0.411. With CCUACAAUUUGGAUACAGATT against P4HA1 the median seed-adjusted z-score was inactive: -0.293. In the case of GAAUCUGACUAUACCAACATT against LOX, the median seed-adjusted z-score is reported as inactive: -0.175. In the case of ACAUCAAAACACCAGCUUUTT against YBX2, the median seed-adjusted z-score is reported as inactive: 0.362. With GGAGAUUCAGAUCCUCAAATT against JAK3 the median seed-adjusted z-score was inactive: -0.0926. In the case of GGAUGUUCGUAUACCAUCATT against CROT, the median seed-adjusted z-score is reported as inactive: -0.612. For GGAACUAUCCAUACAGCGATT against LIPE, the median seed-adjusted z-score was inactive: -0.276. In the case of CUCUACACCGUGUACAUCATT against CHRM4, the median seed-adjusted z-score is reported as inactive: -0.856. For CCACUAAGCACUUCAAUGATT against RASGRF1, the median seed-adjusted z-score was inactive: 0. For GCAACAAUGUUACUCGAUATT against LPHN2, the median seed-adjusted z-score was inactive: -0.817. For GCAUGACUAUGUCAAGAAATT against MCM3, the median seed-adjusted z-score was inactive: 0.339. In the case of GCACUGUGCCCAACUAUGATT against PI4KB, the median seed-adjusted z-score is reported as inactive: 0.105. In the case of GGACCCAUCACUCCCAUUATT against TGIF2, the median seed-adjusted z-score is reported as inactive: -0.304. In the case of AGGGCAUCGACAUUCCGGATT against DUX5, the median seed-adjusted z-score is reported as inactive: -0.295. In the case of CCUCCGUUAUAAACCUGUUTT against SLC19A2, the median seed-adjusted z-score is reported as inactive: -0.679. For CCCUUAAACUAUUAGCCCATT against MYT1L, the median seed-adjusted z-score was inactive: -0.43. In the case of CGGCAAGGAUGCAAGUGAATT against HIC2, the median seed-adjusted z-score is reported as inactive: -0.283. With GAAACCAUCGGGAAGAUUUTT against VWA2 the median seed-adjusted z-score was inactive: 0.584. In the case of CCACUACGUCCUCAAUGUATT against CLSTN1, the median seed-adjusted z-score is reported as inactive: 0.0811.
